According to paper PMC10470772:
No constants are given. Whether binding was seen depends on the method and setting. In cells and extracts the contact can be indirect. Binding can be weak; no strength is given.

Molecular target: Mus musculus papillomavirus 1 (MmuPV1) E8^E2-HA, wild type (Mus musculus papillomavirus 1 (MmuPV1))
Assay: co-IP; HeLa cells transfected with HA-tagged E8^E2 expression vectors; endogenous HDAC3 and TBL1; lysed in IP-buffer (50 mM HEPES pH 7.9, 150 mM NaCl, 0.3% Igepal 630, 1 mM DTT); precipitated with magnetic anti-HA beads; immunoblot with anti-HDAC3, anti-TBL1 and anti-HA

B1: endogenous TBL1 (transducin beta-like protein 1) (protein, UniProt O60907 1-577)
chain: MTELAGASSSCCHRPAGRGAMQSVLHHFQRLRGREGGSHFINTSSPRGEAKMSITSDEVNFLVYRYLQESGFSHSAFTFGIESHISQSNINGTLVPPAALISILQKGLQYVEAEISINEDGTVFDGRPIESLSLIDAVMPDVVQTRQQAFREKLAQQQASAAAAAAAATAAATAATTTSAGVSHQNPSKNREATVNGEENRAHSVNNHAKPMEIDGEVEIPSSKATVLRGHESEVFICAWNPVSDLLASGSGDSTARIWNLNENSNGGSTQLVLRHCIREGGHDVPSNKDVTSLDWNTNGTLLATGSYDGFARIWTEDGNLASTLGQHKGPIFALKWNRKGNYILSAGVDKTTIIWDAHTGEAKQQFPFHSAPALDVDWQNNTTFASCSTDMCIHVCRLGCDRPVKTFQGHTNEVNAIKWDPSGMLLASCSDDMTLKIWSMKQEVCIHDLQAHNKEIYTIKWSPTGPATSNPNSNIMLASASFDSTVRLWDIERGVCTHTLTKHQEPVYSVAFSPDGKYLASGSFDKCVHIWNTQSGNLVHSYRGTGGIFEVCWNARGDKVGASASDGSVCVLDLRK
binding: binds
